We go through one molecule from PubChem BioAssay AID282 (DTP/NCI, 2004).

The test system of the test is BDF1 mice, L1210 terephthalanilide-resistant leukemia ip, survival T/C. Kind of test: NCI In Vivo Anticancer Drug Screen. Data for tumor model L1210 Leukemia resistant to A Terephthalanilide; NSC 38280 (intraperitoneal) in B6D2F1 (BDF1) mice. To be noted: T/C endpoint: mean survival time, schedule: Q01DX010 (ip), vehicle: saline, higher T/C = longer survival. The method, then:
The antitumor activity of compounds was measured in mice bearing transplantable tumors. Survival or tumor size were measured and the results are expressed as the measurement made in the treated group (T) divided by the measurement made in the vehicle treated control group (C). The tumor model used in this assay is L1210 Leukemia resistant to A Terephthalanilide; NSC 38280 (intraperitoneal) in B6D2F1 (BDF1) mice

The list shows only some results of the screen, not a fair sample: it gathers some chemical classes. Not every dose and run of a compound is shown. T/C: endpoint of the treated group in % of that of the vehicle group. Where survival is the endpoint, the PubChem record calls one and a half times the control and up active, and a quarter to a half above the control has no call in these data; cut-offs in other NCI protocols can differ. Some entries show no survivor count and are marked so; the dose need not have been tolerated. Schedules are NCI's codes, read here as Q, the interval in days (D) or hours (H), X, the number of doses. Some entries hold several experiments; their values stand side by side, smallest first.

For the molecule `CN(CCCl)CCCl`, the T/C runs as follows: (dose: 0.13 mg/kg/injection) 115 [survivor count not shown] and 130 % of control [survivor count not shown]; (dose: 0.25 mg/kg/injection) 115 [survivor count not shown] and 118 % of control [survivor count not shown]; (dose: 0.5 mg/kg/injection) 91 [survivor count not shown] and 113 % of control [survivor count not shown].
